Experimental data published in patent US20230013402A1, “REGENERATING FUNCTIONS AND PHENOTYPES OF CONNECTIVE TISSUE THROUGH NPAS2 SUPPRESSION” (The Regents of the University of California, priority 2019, published 2023).
Like-named read-outs stand apart in the source and are kept apart here.

Tested on: human skin fibroblasts
Test: High-throughput cell migration assay (Oris Pro Cell Migration Assay plate) / standardized viability
Assay type: cell-based
Excerpt: Mouse MSC carrying Npas2-LacZ reporter gene, as described by Hassan N, et al., PLoS One. 2017; 12(8):e0183359, which is incorporated by reference herein in its entirety, was immortalized using SV40 in order to accommodate a large-scale HTS. […] This cell system was used to screen FDA Approved Drug Library (1120 compounds). The same library was also screened for cell viability by Calcein AM Hoechst 33342 staining Cell migration assays using the Oris™ Pro Cell Migration Assay plate, as described by Joy M E et al., PloS one. 2014; 9(2):e88350, which is incorporated by reference herein in its entirety, was used for a high-throughput migration assay using human skin fibroblasts
The combined Z score was used to identify hit compounds (Table 1).

Row | SMILES | Migration (standardized viability) Z Score (Table 2, additional Npas2 expression suppressors) | Migration (standardized viability) Z Score
1 | CC(C)NC[C@H](O)COc1ccc(CC(N)=O)cc1 [(S)-(-)-Atenolol, (S)-(−)-Atenolol] | 0.429 | –
2 | CN1[C@@H]2CC[C@H]1CC(OC(=O)C(CO)c1ccccc1)C2.CN1[C@@H]2CC[C@H]1CC(OC(=O)C(CO)c1ccccc1)C2.O.O=S(=O)(O)O (some centres unmarked) [Atropine sulfate monohydrate] | – | 0.181
